Results are given in words; binding and its absence hold for the method and conditions named. Binding seen in cells or lysates may run through a third protein. Some results given as binding are weak or reduced against the parent protein; the word gives no strength. For some of these results: Where a sequence is shown, tags or fusion partners need not be part of it. Blank lines part the entries; values can stand above or below the binder they belong to.
What was measured:
[1] = biological target: T1, heat shock protein 20 (mouse (endogenous in heart)) (UniProt Q5EBG6); assay: co-IP; IP-AC assay: WT or AC9-/- mouse heart extracts (also SAN, LV, RA homogenates) immunoprecipitated with anti-Yotiao or anti-Hsp20 (pre-immune or IgG control); associated AC activity stimulated with 300 nM Gαs and measured
T1 sequence: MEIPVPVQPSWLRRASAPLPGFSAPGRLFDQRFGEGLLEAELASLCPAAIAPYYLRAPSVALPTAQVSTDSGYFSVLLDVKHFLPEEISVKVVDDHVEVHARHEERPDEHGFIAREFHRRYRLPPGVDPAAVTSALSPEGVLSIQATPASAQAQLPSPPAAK

Flag-tagged AC9 (human) = biological target: T2, Flag-tagged AC9 (human) (UniProt O60503); assay: co-IP; HEK293 cells transfected with Flag-AC9, myc-Yotiao and V5-Hsp20 as indicated; lysates immunoprecipitated with anti-Flag or anti-Hsp20, western blot
T2 sequence: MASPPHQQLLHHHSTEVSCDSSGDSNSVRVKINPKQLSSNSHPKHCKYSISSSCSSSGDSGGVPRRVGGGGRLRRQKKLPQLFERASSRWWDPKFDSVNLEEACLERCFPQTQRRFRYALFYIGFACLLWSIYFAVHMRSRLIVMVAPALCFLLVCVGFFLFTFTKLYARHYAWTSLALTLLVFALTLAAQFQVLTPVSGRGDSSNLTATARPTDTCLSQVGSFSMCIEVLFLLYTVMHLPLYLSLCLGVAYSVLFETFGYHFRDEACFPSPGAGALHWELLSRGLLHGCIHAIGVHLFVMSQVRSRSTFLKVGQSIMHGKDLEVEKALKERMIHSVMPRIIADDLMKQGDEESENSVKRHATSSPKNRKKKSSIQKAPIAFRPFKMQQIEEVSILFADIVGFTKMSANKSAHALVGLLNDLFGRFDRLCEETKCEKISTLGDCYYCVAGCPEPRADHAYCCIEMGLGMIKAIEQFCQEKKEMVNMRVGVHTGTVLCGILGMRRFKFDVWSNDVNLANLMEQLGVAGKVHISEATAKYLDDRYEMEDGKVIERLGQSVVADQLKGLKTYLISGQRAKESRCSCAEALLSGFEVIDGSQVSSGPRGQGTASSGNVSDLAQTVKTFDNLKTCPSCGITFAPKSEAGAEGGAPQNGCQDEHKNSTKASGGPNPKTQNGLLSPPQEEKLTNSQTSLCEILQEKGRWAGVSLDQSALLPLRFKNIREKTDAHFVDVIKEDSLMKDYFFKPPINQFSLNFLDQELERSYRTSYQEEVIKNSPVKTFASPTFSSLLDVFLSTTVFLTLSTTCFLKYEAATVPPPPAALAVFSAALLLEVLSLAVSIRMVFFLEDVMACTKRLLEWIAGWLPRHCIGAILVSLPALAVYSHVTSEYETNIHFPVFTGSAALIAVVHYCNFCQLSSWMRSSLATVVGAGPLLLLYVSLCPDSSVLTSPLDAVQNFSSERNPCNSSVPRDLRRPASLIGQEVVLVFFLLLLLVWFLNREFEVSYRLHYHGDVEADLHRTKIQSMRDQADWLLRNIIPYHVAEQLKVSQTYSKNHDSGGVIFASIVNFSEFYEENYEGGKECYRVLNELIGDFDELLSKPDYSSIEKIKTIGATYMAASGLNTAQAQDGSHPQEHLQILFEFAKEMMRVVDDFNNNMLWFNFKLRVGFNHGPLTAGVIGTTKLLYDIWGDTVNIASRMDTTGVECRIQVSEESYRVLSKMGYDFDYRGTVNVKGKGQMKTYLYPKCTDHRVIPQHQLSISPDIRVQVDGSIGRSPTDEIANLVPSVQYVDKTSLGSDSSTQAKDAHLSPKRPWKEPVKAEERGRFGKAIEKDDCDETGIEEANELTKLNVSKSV

YFP-tagged AC9 (human) = biological target: T3, YFP-tagged AC9 (human) (UniProt O60503); assay: proximity ligation; Duolink in situ PLA in transfected, fixed HEK293 cells; anti-Hsp20, anti-GFP, anti-Gβγ primary antibodies; high content microscopy, positive cells 4 or more dots
T3 sequence: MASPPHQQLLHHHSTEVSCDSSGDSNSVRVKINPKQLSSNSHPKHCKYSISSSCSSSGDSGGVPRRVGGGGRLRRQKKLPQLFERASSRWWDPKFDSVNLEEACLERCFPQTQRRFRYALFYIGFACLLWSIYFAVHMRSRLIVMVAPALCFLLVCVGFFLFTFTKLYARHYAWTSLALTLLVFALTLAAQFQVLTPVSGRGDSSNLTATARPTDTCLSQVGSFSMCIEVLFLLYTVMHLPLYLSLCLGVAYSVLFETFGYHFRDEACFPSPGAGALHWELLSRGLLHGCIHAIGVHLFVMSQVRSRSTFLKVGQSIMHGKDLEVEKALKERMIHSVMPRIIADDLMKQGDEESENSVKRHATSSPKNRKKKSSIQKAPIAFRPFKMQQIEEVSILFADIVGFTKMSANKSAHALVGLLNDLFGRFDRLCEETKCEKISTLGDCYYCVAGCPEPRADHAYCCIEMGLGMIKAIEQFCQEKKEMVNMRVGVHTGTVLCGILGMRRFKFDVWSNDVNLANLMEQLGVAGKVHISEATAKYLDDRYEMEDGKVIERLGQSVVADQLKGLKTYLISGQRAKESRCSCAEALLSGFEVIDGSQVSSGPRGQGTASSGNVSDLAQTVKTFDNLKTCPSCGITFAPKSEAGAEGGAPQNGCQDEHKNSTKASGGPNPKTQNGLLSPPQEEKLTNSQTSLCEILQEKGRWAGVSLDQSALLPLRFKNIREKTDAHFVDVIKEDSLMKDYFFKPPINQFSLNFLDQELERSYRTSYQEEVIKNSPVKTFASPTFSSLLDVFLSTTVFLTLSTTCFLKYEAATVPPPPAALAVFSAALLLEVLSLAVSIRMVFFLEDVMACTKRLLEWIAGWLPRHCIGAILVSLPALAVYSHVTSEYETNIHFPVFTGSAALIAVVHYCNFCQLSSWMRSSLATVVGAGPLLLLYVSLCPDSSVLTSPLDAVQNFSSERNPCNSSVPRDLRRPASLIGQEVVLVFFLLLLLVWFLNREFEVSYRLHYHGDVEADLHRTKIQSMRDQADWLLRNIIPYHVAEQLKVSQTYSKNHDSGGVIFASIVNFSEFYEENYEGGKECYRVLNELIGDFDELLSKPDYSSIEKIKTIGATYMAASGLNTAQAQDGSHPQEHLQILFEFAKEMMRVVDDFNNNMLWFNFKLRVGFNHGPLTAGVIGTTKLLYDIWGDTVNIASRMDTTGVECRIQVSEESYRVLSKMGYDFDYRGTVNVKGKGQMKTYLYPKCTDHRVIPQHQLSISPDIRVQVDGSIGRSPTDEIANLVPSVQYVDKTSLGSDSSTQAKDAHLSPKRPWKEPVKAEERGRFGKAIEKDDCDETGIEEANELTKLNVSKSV

V5-tagged Hsp20 = biological target: T4, V5-tagged Hsp20 (UniProt O14558); assay: co-IP; HEK293 cells transfected with Flag-AC9, myc-Yotiao and V5-Hsp20 as indicated; lysates immunoprecipitated with anti-Flag or anti-Hsp20, western blot
T4 sequence: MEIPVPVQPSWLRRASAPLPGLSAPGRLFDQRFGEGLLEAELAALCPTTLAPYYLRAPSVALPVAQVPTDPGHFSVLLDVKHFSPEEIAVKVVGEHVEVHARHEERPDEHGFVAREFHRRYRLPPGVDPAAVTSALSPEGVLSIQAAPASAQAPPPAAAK

binding [1]: binds
B1: Adenylyl cyclase type 9 (enzyme, UniProt P51830 1-1353)
chain: MASSPHQQLLHHHSTEVSCDSSGDSNSVRVKINPKQLSSNTHPKHCKYSISSSCSSSGDSGGLPRRVGGGGRLRRQKKLPQLFERASSRWWDPKFDSMNLEEACLERCFPQTQRRFRYALFYVGFACLLWSIYFAVHMKSKVIVMVVPALCFLVVCVGFFLFTFTKLYARHYAWTSLALTLLVFALTLAAQFQVWTPLSGRVDSSNHTLTATPADTCLSQVGSFSICIEVLLLLYTVMQLPLYLSLFLGVVYSVLFETFGYHFRNEDCYPSPGPGALHWELLSRALLHVCIHAIGIHLFVMSQVRSRSTFLKVGQSIMHGKDLEVEKALKERMIHSVMPRIIADDLMKQGDEESENSVKRHATSSPKNRKKKSSIQKAPIAFRPFKMQQIEEVSILFADIVGFTKMSANKSAHALVGLLNDLFGRFDRLCEQTKCEKISTLGDCYYCVAGCPEPRADHAYCCIEMGLGMIKAIEQFCQEKKEMVNMRVGVHTGTVLCGILGMRRFKFDVWSNDVNLANLMEQLGVAGKVHISEATAKYLDDRYEMEDGRVIERLGQSVVADQLKGLKTYLISGQRAKESHCSCAEALLSGFEVIDDSRESSGPRGQGTASPGSVSDLAQTVKTFDNLKTCPSCGITFAPKSEAGAEGGTVQNGCQDEPKTSTKASGGPNSKTQNGLLSPPAEEKLTNSQTSLCEILQEKGRWAGVSLDQSALLPLRFKNIREKTDAHFVDVIKEDSLMKDYFFKPPINQFSLNFLDQELERSYRTSYQEEVIKNSPVKTFASATFSSLLDVFLSTTVFLILSITCFLKYGATATPPPPAALAVFGADLLLEVLSLIVSIRMVFFLEDVMTCTKWLLEWIAGWLPRHCIGAILVSLPALAVYSHITSEFETNIHVTMFTGSAVLVAVVHYCNFCQLSSWMRSSLATIVGAGLLLLLHISLCQDSSIVMSPLDSAQNFSAQRNPCNSSVLQDGRRPASLIGKELILTFFLLLLLVWFLNREFEVSYRLHYHGDVEADLHRTKIQSMRDQADWLLRNIIPYHVAEQLKVSQTYSKNHDSGGVIFASIVNFSEFYEENYEGGKECYRVLNELIGDFDELLSKPDYNSIEKIKTIGATYMAASGLNTAQCQEGGHPQEHLRILFEFAKEMMRVVDDFNNNMLWFNFKLRVGFNHGPLTAGVIGTTKLLYDIWGDTVNIASRMDTTGVECRIQVSEESYRVLSKMGYDFDYRGTVNVKGKGQMKTYLYPKCTDNGVVPQHQLSISPDIRVQVDGSIGRSPTDEIANLVPSVQYSDKASLGSDDSTQAKEARLSSKRSWREPVKAEERFPFGKAIEKDSCEDIGVEEASELSKLNVSKSV

binding (Flag-tagged AC9 (human)): binds
B2: V5-tagged Hsp20 (protein, UniProt O14558 1-160)
chain: MEIPVPVQPSWLRRASAPLPGLSAPGRLFDQRFGEGLLEAELAALCPTTLAPYYLRAPSVALPVAQVPTDPGHFSVLLDVKHFSPEEIAVKVVGEHVEVHARHEERPDEHGFVAREFHRRYRLPPGVDPAAVTSALSPEGVLSIQAAPASAQAPPPAAAK

binding (YFP-tagged AC9 (human)): binds
B3: Hsp20 (in the proximity ligation assay) (protein, UniProt O14558 1-160)
chain: MEIPVPVQPSWLRRASAPLPGLSAPGRLFDQRFGEGLLEAELAALCPTTLAPYYLRAPSVALPVAQVPTDPGHFSVLLDVKHFSPEEIAVKVVGEHVEVHARHEERPDEHGFVAREFHRRYRLPPGVDPAAVTSALSPEGVLSIQAAPASAQAPPPAAAK

binding (V5-tagged Hsp20): binds
B4: Flag-tagged AC9 (enzyme, UniProt O60503 1-1353)
chain: MASPPHQQLLHHHSTEVSCDSSGDSNSVRVKINPKQLSSNSHPKHCKYSISSSCSSSGDSGGVPRRVGGGGRLRRQKKLPQLFERASSRWWDPKFDSVNLEEACLERCFPQTQRRFRYALFYIGFACLLWSIYFAVHMRSRLIVMVAPALCFLLVCVGFFLFTFTKLYARHYAWTSLALTLLVFALTLAAQFQVLTPVSGRGDSSNLTATARPTDTCLSQVGSFSMCIEVLFLLYTVMHLPLYLSLCLGVAYSVLFETFGYHFRDEACFPSPGAGALHWELLSRGLLHGCIHAIGVHLFVMSQVRSRSTFLKVGQSIMHGKDLEVEKALKERMIHSVMPRIIADDLMKQGDEESENSVKRHATSSPKNRKKKSSIQKAPIAFRPFKMQQIEEVSILFADIVGFTKMSANKSAHALVGLLNDLFGRFDRLCEETKCEKISTLGDCYYCVAGCPEPRADHAYCCIEMGLGMIKAIEQFCQEKKEMVNMRVGVHTGTVLCGILGMRRFKFDVWSNDVNLANLMEQLGVAGKVHISEATAKYLDDRYEMEDGKVIERLGQSVVADQLKGLKTYLISGQRAKESRCSCAEALLSGFEVIDGSQVSSGPRGQGTASSGNVSDLAQTVKTFDNLKTCPSCGITFAPKSEAGAEGGAPQNGCQDEHKNSTKASGGPNPKTQNGLLSPPQEEKLTNSQTSLCEILQEKGRWAGVSLDQSALLPLRFKNIREKTDAHFVDVIKEDSLMKDYFFKPPINQFSLNFLDQELERSYRTSYQEEVIKNSPVKTFASPTFSSLLDVFLSTTVFLTLSTTCFLKYEAATVPPPPAALAVFSAALLLEVLSLAVSIRMVFFLEDVMACTKRLLEWIAGWLPRHCIGAILVSLPALAVYSHVTSEYETNIHFPVFTGSAALIAVVHYCNFCQLSSWMRSSLATVVGAGPLLLLYVSLCPDSSVLTSPLDAVQNFSSERNPCNSSVPRDLRRPASLIGQEVVLVFFLLLLLVWFLNREFEVSYRLHYHGDVEADLHRTKIQSMRDQADWLLRNIIPYHVAEQLKVSQTYSKNHDSGGVIFASIVNFSEFYEENYEGGKECYRVLNELIGDFDELLSKPDYSSIEKIKTIGATYMAASGLNTAQAQDGSHPQEHLQILFEFAKEMMRVVDDFNNNMLWFNFKLRVGFNHGPLTAGVIGTTKLLYDIWGDTVNIASRMDTTGVECRIQVSEESYRVLSKMGYDFDYRGTVNVKGKGQMKTYLYPKCTDHRVIPQHQLSISPDIRVQVDGSIGRSPTDEIANLVPSVQYVDKTSLGSDSSTQAKDAHLSPKRPWKEPVKAEERGRFGKAIEKDDCDETGIEEANELTKLNVSKSV
